Measured values published in patent US20090264345A1 (priority 2006, published 2009).

Assay: peptide synthesis
Settings: cyclisation step

## cyclo(FLVLL)
  cyclisation yield: 65%
